Data published in US20060257938A1, “Method of screening for drugs that block ligand binding to a lipid binding protein” (priority 2005, published 2006).

Experiment: Baseline fluorescence ratio Ro of probe in absence of analyte
Details: baseline fluorescence ratio of probe

Row | Molecule | Ro | Ro (no fatty acid)
1 | 21Y, 72A (protein, listed as Rattus norvegicus, PEPTIDE (1)...(131) wild-type rat intestinal fatty acid binding protein) AFDGTWKVDRNENYEKFMEKYGINVVKRKLGAHDNLKLTITQEGNKFTVKESSNFRNIDVVFELGVDFAYSAADGTELTGTWTMEGNKLVGKFKRVDNGKELIAVREISGNELIQTYTYEGVEAKRIFKKE | 0.432 | 
2 | 72V 73W 74N (protein, listed as Rattus norvegicus, PEPTIDE (1)...(131) wild-type rat intestinal fatty acid binding protein) AFDGTWKVDRNENYEKFMEKMGINVVKRKLGAHDNLKLTITQEGNKFTVKESSNFRNIDVVFELGVDFAYSVWNGTELTGTWTMEGNKLVGKFKRVDNGKELIAVREISGNELIQTYTYEGVEAKRIFKKE | 0.207 | 0.207
3 | 18I 31A 73F 72A (protein, listed as Rattus norvegicus, PEPTIDE (1)...(131) wild-type rat intestinal fatty acid binding protein) AFDGTWKVDRNENYEKFIEKMGINVVKRKLAAHDNLKLTITQEGNKFTVKESSNFRNIDVVFELGVDFAYSAFDGTELTGTWTMEGNKLVGKFKRVDNGKELIAVREISGNELIQTYTYEGVEAKRIFKKE | 0.330 | 0.330
4 | 18I 31Y 73V 72A (protein, listed as Rattus norvegicus, PEPTIDE (1)...(131) wild-type rat intestinal fatty acid binding protein) AFDGTWKVDRNENYEKFIEKMGINVVKRKLYAHDNLKLTITQEGNKFTVKESSNFRNIDVVFELGVDFAYSAVDGTELTGTWTMEGNKLVGKFKRVDNGKELIAVREISGNELIQTYTYEGVEAKRIFKKE | 0.365 | 0.365
5 | 72A 73W 74A (protein, listed as Rattus norvegicus, PEPTIDE (1)...(131) wild-type rat intestinal fatty acid binding protein) AFDGTWKVDRNENYEKFMEKMGINVVKRKLGAHDNLKLTITQEGNKFTVKESSNFRNIDVVFELGVDFAYSAWAGTELTGTWTMEGNKLVGKFKRVDNGKELIAVREISGNELIQTYTYEGVEAKRIFKKE | 0.268 | 0.268
6 | 72V 73W 74S (protein, listed as Rattus norvegicus, PEPTIDE (1)...(131) wild-type rat intestinal fatty acid binding protein) AFDGTWKVDRNENYEKFMEKMGINVVKRKLGAHDNLKLTITQEGNKFTVKESSNFRNIDVVFELGVDFAYSVWSGTELTGTWTMEGNKLVGKFKRVDNGKELIAVREISGNELIQTYTYEGVEAKRIFKKE | 0.270 | 0.270
7 | 18V 31A 73F 72A (protein, listed as Rattus norvegicus, PEPTIDE (1)...(131) wild-type rat intestinal fatty acid binding protein) AFDGTWKVDRNENYEKFVEKMGINVVKRKLAAHDNLKLTITQEGNKFTVKESSNFRNIDVVFELGVDFAYSAFDGTELTGTWTMEGNKLVGKFKRVDNGKELIAVREISGNELIQTYTYEGVEAKRIFKKE | 0.308 | 0.308
8 | 14Q 18L 31A 73W 117V 72A (protein, listed as Rattus norvegicus, PEPTIDE (1)...(131) wild-type rat intestinal fatty acid binding protein) AFDGTWKVDRNENQEKFLEKMGINVVKRKLAAHDNLKLTITQEGNKFTVKESSNFRNIDVVFELGVDFAYSAWDGTELTGTWTMEGNKLVGKFKRVDNGKELIAVREISGNELIQTVTYEGVEAKRIFKKE | 0.334 | 0.334
